Measurements as given in patent US7834003B2, “5-aminopyrazole derivatives as pesticidal compounds” (Merial Limited, priority 2004, dated 2010).
Some results were stated once for a whole list of compounds, not compound by compound.

Test system: Ctenocephalides felis (cat flea)
Assay: Method A: screening method to test systemicity of compounds against Ctenocephalides felis (artificial dog test, treated bovine blood)
Format: in vivo
Conditions: test concentration of 5 ppm or less; 10 adults; compound in bovine blood; assessment at 24 and 48 hours after application

SMILES | control of Ctenocephalides felis
CN(CC(O)CO)c1c(S(=O)(=O)C(F)(F)F)c(C#N)nn1-c1c(Cl)cc(C(F)(F)F)cc1Cl (centres unmarked) [Compound 01-03, 1-[2,6-dichloro-4-(trifluoromethyl)phenyl]-5-[(2,3-dihydroxypropyl)(methyl)amino]-4-[(trifluoromethyl)sulfonyl]-1H-pyrazole-3-carbonitrile] | at least 80%
CN(CC1COC(=O)O1)c1c(S(=O)(=O)C(F)(F)F)c(C#N)nn1-c1c(Cl)cc(C(F)(F)F)cc1Cl (centres unmarked) [Compound 05-18, 1-[2,6-dichloro-4-(trifluoromethyl)phenyl]-5-(methyl[(2-oxo-1,3-dioxolan-4-yl)methyl]amino]-4-[(trifluoromethyl)sulfonyl]-1H-pyrazole-3-carbonitrile] | at least 80%
